Measured values taken from doi:10.1101/2020.06.08.118984 (bioRxiv, 2020).
These are yes or no findings as the source states them, for the method shown. Binding seen in cells or lysates may run through a third protein. These calls come from enrichment with a bait or labelling near it, and not all partners need be listed.

The chains behind the UniProt entries cited, without tags or fusion partners.
UniProt Q99PM3: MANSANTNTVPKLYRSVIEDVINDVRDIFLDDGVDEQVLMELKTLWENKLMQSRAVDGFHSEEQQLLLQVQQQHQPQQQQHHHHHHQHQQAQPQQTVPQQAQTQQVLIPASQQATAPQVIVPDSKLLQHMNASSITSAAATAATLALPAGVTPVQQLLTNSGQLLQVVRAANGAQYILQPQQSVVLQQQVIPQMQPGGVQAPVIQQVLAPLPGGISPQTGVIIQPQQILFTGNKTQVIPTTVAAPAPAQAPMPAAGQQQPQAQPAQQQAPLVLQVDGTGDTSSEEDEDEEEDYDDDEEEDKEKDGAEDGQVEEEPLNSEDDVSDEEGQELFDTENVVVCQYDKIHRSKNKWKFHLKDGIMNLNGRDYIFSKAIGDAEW
UniProt Q80ZM7: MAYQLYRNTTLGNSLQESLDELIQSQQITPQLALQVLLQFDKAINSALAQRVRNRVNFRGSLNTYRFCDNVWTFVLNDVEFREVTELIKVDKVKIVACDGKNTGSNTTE

Target: T1, TBPL2 (TATA binding protein paralogue) (mouse (endogenous in P14 ovary)) (UniProt Q6SJ95)
T1 sequence: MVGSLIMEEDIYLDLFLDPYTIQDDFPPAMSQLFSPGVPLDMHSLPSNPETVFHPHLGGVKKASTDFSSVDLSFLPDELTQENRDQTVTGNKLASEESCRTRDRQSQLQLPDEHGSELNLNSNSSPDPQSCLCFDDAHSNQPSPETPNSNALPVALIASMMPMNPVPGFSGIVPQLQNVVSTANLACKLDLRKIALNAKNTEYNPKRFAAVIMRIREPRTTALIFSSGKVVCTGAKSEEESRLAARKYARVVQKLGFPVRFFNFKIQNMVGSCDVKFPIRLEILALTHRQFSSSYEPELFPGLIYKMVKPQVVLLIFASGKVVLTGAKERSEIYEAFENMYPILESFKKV
Experiment: affinity purification with mass spectrometry

| Substance | binding |
| --- | --- |
| TFIIA-αβ (from UniProt Q99PM3 1-378) | binds |
| TFIIA-γ (from UniProt Q80ZM7 1-109) | binds |
